Assay: Fmoc solid-phase peptide synthesis; Sieber amide resin; HBTU/HOBt; DCC/HOBt; DIPCDI/HOAt
Conditions: whole synthesis, scale 0.02 mmol

Q: For β-Ala0,Arg1-NMU-8, which isolated mass is on record?
A: The isolated mass was 11.2 mg.
